Measurements published in patent US8735443B2, “Method of treating diabetes-related vascular complications” (Kuwait University, priority 2008, dated 2014).
At least one structure is not confirmed: it was looked up by name or label, or the drawing left a doubt.

System: PI3K
Assay: Chronic wortmannin in LA-treated GK rats
Assay type: in vivo, rat
Details: given chronically to GK rats

Compound: COC[C@H]1OC(=O)c2coc3c2[C@@]1(C)C1=C(C3=O)[C@@H]2CCC(=O)[C@@]2(C)C[C@H]1OC(C)=O [wortmannin]
- effect on the anti-inflammatory and anti-apoptotic actions of LA: negated
